Tested on: HLA molecules from shock-frozen tissue samples (CRC, other tumors, normal tissues)
Experiment: Identification and label-free relative LC-MS quantitation of HLA-presented tumor associated peptides (presentation profiles, XPRESIDENT)
Design: species or system human; key to Peptide Presentation (presentation score): very highly over-presented on tumors compared to a panel of normal tissues (+++); highly over-presented on tumors compared to a panel of normal tissues (++); over-presented on tumors compared to a panel of normal tissues (+)
Details: for Other relevant organs/diseases: additional tumor types: over-presented on more than 5% of measured tumor samples, or presented on more than 5% with ratio of geometric means tumor vs normal larger than 3; for Peptide Presentation (presentation score): over-presentation on tumors compared to a panel of normal tissues; for Additional Entities (additional tumor types on which the peptide was found): over-presentation on more than 5% of the measured tumor samples, or presentation on more than 5% of the measured tumor samples with ratio of geometric means tumor vs normal tissues larger than 3

## 230 (AMSSKFFLV; listed as Homo sapiens) [compound 230]
  Other relevant organs/diseases: Lung, Brain, Stomach, Liver, Pancreas, Prostate, Breast, Ovary, Esophagus
  Peptide Presentation (presentation score): ++

## 221: peptide found in ACLY (gene looked up) (ILNVDGLIGV; listed as Homo sapiens) [compound 221]
  Other relevant organs/diseases: Kidney, Brain, Liver, Prostate, Leukocytes
  Peptide Presentation (presentation score): +

## 21 (VLIDHRWVL; listed as Homo sapiens) [compound 21]
  Peptide Presentation (presentation score): +++

## 235 (LLHEENFSV; listed as Homo sapiens) [compound 235]
  Other relevant organs/diseases: Lung, Kidney, Liver, Ovary, Esophagus
  Peptide Presentation (presentation score): ++

## 182 (SLNKWIFTV; listed as Homo sapiens) [compound 182]
  Additional Entities (additional tumor types on which the peptide was found): Melanoma

## 165 (RLLDFPEAMVL; listed as Homo sapiens) [compound 165]
  Other relevant organs/diseases: Lung, Ovary
  Additional Entities (additional tumor types on which the peptide was found): SCLC, CLL, Urinary bladder cancer, Uterine Cancer
  Peptide Presentation (presentation score): +++

## SEQ ID NO.: 22 (GLIDEVMVL; listed as Homo sapiens)
All samples with detectable presentation, all tumor types
  number of cancer tissues with detectable presentation of the peptide: 6
Normal tissue panel as in FIG. 1A-C
  number of normal tissues with detectable presentation of the peptide: 1

## 210 (KLAVALLAA; listed as Homo sapiens) [compound 210]
  Other relevant organs/diseases: Lung, Kidney, Brain, Liver, Esophagus
  Peptide Presentation (presentation score): +++

## 71 (RLWTEIPTAI; listed as Homo sapiens) [compound 71]
  Other relevant organs/diseases: Liver
  Additional Entities (additional tumor types on which the peptide was found): NSCLC, SCLC, Melanoma, Esophageal Cancer, Urinary bladder cancer
  Peptide Presentation (presentation score): ++

## 60 (VLDEDEPRFL; listed as Homo sapiens) [compound 60]
  Peptide Presentation (presentation score): +

## 186 (KMSEKILLL; listed as Homo sapiens) [compound 186]
  Other relevant organs/diseases: Esophagus
  Additional Entities (additional tumor types on which the peptide was found): Melanoma
  Peptide Presentation (presentation score): +

## 44 (SLESKLTSV; listed as Homo sapiens) [compound 44]
  Other relevant organs/diseases: Brain, Pancreas, Ovary
  Additional Entities (additional tumor types on which the peptide was found): Melanoma, Urinary bladder cancer, Uterine Cancer
  Peptide Presentation (presentation score): +++

## 46 (GLDDRYSLV; listed as Homo sapiens) [compound 46]
  Other relevant organs/diseases: Esophagus
  Additional Entities (additional tumor types on which the peptide was found): Urinary bladder cancer
  Peptide Presentation (presentation score): +

## 39 (GLNGGSPAAA; listed as Homo sapiens) [compound 39]
  Peptide Presentation (presentation score): +++

## 98 (AMNGKSFSV; listed as Homo sapiens) [compound 98]
  Other relevant organs/diseases: Liver, Esophagus
  Additional Entities (additional tumor types on which the peptide was found): NSCLC, SCLC, BRCA, Melanoma, OC, Urinary bladder cancer, Gallbladder Cancer, Bile Duct Cancer

## 102 (KILVSLIEV; listed as Homo sapiens) [compound 102]
  Other relevant organs/diseases: Lung, Kidney, Ovary, Esophagus
  Additional Entities (additional tumor types on which the peptide was found): NHL
  Peptide Presentation (presentation score): +++

## 193 (KLSPTVVGL; listed as Homo sapiens) [compound 193]
  Other relevant organs/diseases: Liver, Ovary
  Peptide Presentation (presentation score): +++

## 66 (GLDDGPDFL; listed as Homo sapiens) [compound 66]
  Additional Entities (additional tumor types on which the peptide was found): Melanoma
  Peptide Presentation (presentation score): +

## 119 (ILYQTVTGL; listed as Homo sapiens) [compound 119]
  Other relevant organs/diseases: Esophagus
  Additional Entities (additional tumor types on which the peptide was found): CLL, Melanoma, Urinary bladder cancer, Uterine Cancer, AML, NHL

## 28 (ALTEIQEFI; listed as Homo sapiens) [compound 28]
  Additional Entities (additional tumor types on which the peptide was found): NSCLC, Brain Cancer, HCC, BRCA, Melanoma, Esophageal Cancer, Urinary bladder cancer, Gallbladder Cancer, Bile Duct Cancer, AML, NHL

## 158 (GLLDPSVFHV; listed as Homo sapiens) [compound 158]
  Other relevant organs/diseases: Kidney, Brain, Liver, Esophagus
  Additional Entities (additional tumor types on which the peptide was found): Melanoma, Urinary bladder cancer, Gallbladder Cancer, Bile Duct Cancer, AML, NHL
  Peptide Presentation (presentation score): +++

## 108 (SLAELVPGVGGI; listed as Homo sapiens) [compound 108]
  Other relevant organs/diseases: Kidney, Brain, Liver, Ovary
  Additional Entities (additional tumor types on which the peptide was found): BRCA

## 118 (LLADLKTMV; listed as Homo sapiens) [compound 118]
  Other relevant organs/diseases: Brain, Leukocytes, Melanoma
  Additional Entities (additional tumor types on which the peptide was found): NHL

## 128 (MLDDRAYLV; listed as Homo sapiens) [compound 128]
  Other relevant organs/diseases: Lung, Brain, Breast, MCC, Ovary, Esophagus
  Peptide Presentation (presentation score): ++

## 34 (ILLEKSVSV; listed as Homo sapiens) [compound 34]
  Other relevant organs/diseases: Ovary
  Additional Entities (additional tumor types on which the peptide was found): BRCA, Melanoma, Esophageal Cancer, Urinary bladder cancer
  Peptide Presentation (presentation score): +++

## 6 (FLAELPGSLSL; listed as Homo sapiens) [compound 6]
  Other relevant organs/diseases: Lung, Liver, Leukocytes, Melanoma, Ovary
  Additional Entities (additional tumor types on which the peptide was found): SCLC, Urinary bladder cancer, Uterine Cancer, Gallbladder Cancer, Bile Duct Cancer, AML, NHL
  Peptide Presentation (presentation score): +

## 217 (KLLDTMVDTFL; listed as Homo sapiens) [compound 217]
  Other relevant organs/diseases: Lung, Kidney, Brain, Liver, Ovary, Esophagus
  Peptide Presentation (presentation score): ++

## 232 (RLLDSVSRL; listed as Homo sapiens) [compound 232]
  Other relevant organs/diseases: Lung, Kidney, Liver, Pancreas, Breast, Ovary, Esophagus
  Peptide Presentation (presentation score): +

## 3 (RLIPDTLYSV; listed as Homo sapiens) [compound 3]
  Other relevant organs/diseases: Lung, Pancreas, Breast, Ovary, Esophagus
  Additional Entities (additional tumor types on which the peptide was found): Melanoma, Urinary bladder cancer, Uterine Cancer, Gallbladder Cancer, Bile Duct Cancer
  Peptide Presentation (presentation score): +++

## 58 (AMADKMDMSL; listed as Homo sapiens) [compound 58]
  Other relevant organs/diseases: Brain, Leukocytes, Melanoma
  Additional Entities (additional tumor types on which the peptide was found): NSCLC, SCLC, BRCA, Urinary bladder cancer, Uterine Cancer, Gallbladder Cancer, Bile Duct Cancer, AML, NHL
  Peptide Presentation (presentation score): +

## 144 (LLNDRIWLA; listed as Homo sapiens) [compound 144]
  Other relevant organs/diseases: Esophagus
  Additional Entities (additional tumor types on which the peptide was found): BRCA, Melanoma, Uterine Cancer
  Peptide Presentation (presentation score): +

## 167 (SVIDHIHLISV; listed as Homo sapiens) [compound 167]
  Other relevant organs/diseases: Lung, Melanoma, Ovary
  Additional Entities (additional tumor types on which the peptide was found): SCLC, BRCA

## 188 (FLVDGPRVQL; listed as Homo sapiens) [compound 188]
  Other relevant organs/diseases: Breast, Melanoma
  Additional Entities (additional tumor types on which the peptide was found): CLL, Uterine Cancer
  Peptide Presentation (presentation score): +

## 96 (KLYSRLVYV; listed as Homo sapiens) [compound 96]
  Peptide Presentation (presentation score): ++

## 138 (KQFEGTVEI; listed as Homo sapiens) [compound 138]
  Other relevant organs/diseases: Esophagus
  Additional Entities (additional tumor types on which the peptide was found): CLL, NHL
  Peptide Presentation (presentation score): +++

## 162 (KLMDYIDEL; listed as Homo sapiens) [compound 162]
  Other relevant organs/diseases: Brain, Esophagus
  Additional Entities (additional tumor types on which the peptide was found): NSCLC, BRCA, Melanoma, Urinary bladder cancer, Gallbladder Cancer, Bile Duct Cancer, NHL
  Peptide Presentation (presentation score): ++

## 213 (LLWAPTAQA; listed as Homo sapiens) [compound 213]
  Peptide Presentation (presentation score): +++

## 256 (GLLEELVTV; listed as Homo sapiens) [compound 256]
  Other relevant organs/diseases: Lung, Stomach, Pancreas, Ovary

## 33 (ALWEKNTHL; listed as Homo sapiens) [compound 33]
  Other relevant organs/diseases: Liver, MCC
  Additional Entities (additional tumor types on which the peptide was found): Urinary bladder cancer
  Peptide Presentation (presentation score): +++

## 55 (QIITSVVSV; listed as Homo sapiens) [compound 55]
  Other relevant organs/diseases: Pancreas
  Additional Entities (additional tumor types on which the peptide was found): CLL, Urinary bladder cancer, Uterine Cancer, AML

## 197 (SLFGQDVKAV; listed as Homo sapiens) [compound 197]
  Other relevant organs/diseases: MCC, Esophagus

## 70 (MISELEVRL; listed as Homo sapiens) [compound 70]
  Other relevant organs/diseases: Kidney, Stomach, Prostate, Esophagus
  Peptide Presentation (presentation score): +

## 31 (LLYGKYVSV; listed as Homo sapiens) [compound 31]
  Other relevant organs/diseases: Lung, Kidney, Brain, Liver, Leukocytes, Ovary, Esophagus
  Additional Entities (additional tumor types on which the peptide was found): SCLC, Melanoma, Urinary bladder cancer, Uterine Cancer
  Peptide Presentation (presentation score): +++

## 254 (VLFQEALWHV; listed as Homo sapiens) [compound 254]
  Other relevant organs/diseases: Liver
  Peptide Presentation (presentation score): ++

## 226 (FLVDGSWSV; listed as Homo sapiens) [compound 226]
  Other relevant organs/diseases: Lung, Stomach, Pancreas, Breast, Ovary, Esophagus
  Peptide Presentation (presentation score): +

## 111 (HMDDGGYSM; listed as Homo sapiens) [compound 111]
  Peptide Presentation (presentation score): +
